# Binding screen against folded nucleic acids

Targets (5′ to 3′):
T1: PreQ1 riboswitch RNA pseudoknot, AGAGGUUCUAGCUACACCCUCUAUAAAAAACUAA. From B. subtilis. About 24,000 compounds screened, about 170 hits.
T2: SAM-II riboswitch RNA pseudoknot, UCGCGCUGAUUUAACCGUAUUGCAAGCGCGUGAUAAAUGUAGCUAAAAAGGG. About 21,000 compounds screened, about 200 hits.
T3: TPP riboswitch RNA three-way junction, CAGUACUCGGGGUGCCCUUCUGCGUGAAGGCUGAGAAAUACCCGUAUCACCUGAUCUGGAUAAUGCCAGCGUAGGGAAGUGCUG. About 24,000 compounds screened, about 160 hits.

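The test is a small-molecule microarray: each compound is printed twice on a reactive slide, and binding shows as fluorescence of the labelled oligonucleotide after washing. For the PreQ1, TPP and SAM-II riboswitches the laboratory earlier reported (doi:10.1038/s41467-019-09493-3) 1 µM RNA, 2 h, and a rule that included a mean Z-score above 3 (spot signal-to-noise against the whole library), a score well above that on a control array, and duplicate spots agreeing (coefficient of variation under 100). The data file gives only the calls; its cut-offs may differ, and compounds hitting several targets are kept. The calls come from the array alone, and fixing a compound to the slide can hide its binding.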 A compound is marked Y if it was called a hit and N if it was screened but was not. Compounds were drawn at random from those tested, without regard to their results. A dash means that no call is listed here.

| # | SMILES | T1 | T2 | T3 |
|---|---|---|---|---|
| 1 | `Cc1ccc(C(NC(=O)[C@H]2CC[C@@H](O)CC2)c2cccnc2)cc1C` (some centres undefined) | N | N | N |
| 2 | `O=c1cc(CO)[nH]nc1CO` | N | N | N |
| 3 | `CC(=O)O[C@]1(C(C)=O)CC[C@H]2[C@@H]3C=C(Cl)C4=CC(=O)[C@@H]5C[C@H]5[C@]4(C)[C@@H]3CC[C@@]21C` | N | N | N |
| 4 | `O=C(c1ccc(CO)cc1)N1C[C@H]2COc3ccccc3C[C@@]2(C(=O)O)C1` | N | N | N |
| 5 | `CCn1c(C(=O)O)c(CNCCc2ccc(Cl)cc2)c2ccccc21` | N | - | N |
| 6 | `Nc1nonc1-c1nc2ccccc2n1CC(=O)Nc1ccc(F)c(Cl)c1` | N | - | N |
| 7 | `N[C@@H]1CCN(c2cc(C(=O)N3CCCC3)ccn2)C[C@H]1O` | N | N | N |
| 8 | `Clc1cccc(Nc2c(-c3ccccc3)nc3cnccn23)c1` | N | - | N |
| 9 | `CC1CC2(C)Oc3ccccc3C3OCC1(CO)C(C)C32` (centres undefined) | N | N | N |
| 10 | `Cc1ccc2nc(-c3ccncc3)c(NC3CCCCC3)n2c1` | N | N | N |
| 11 | `Cc1ccccc1OCC(O)Cn1c(C2CC(=O)N(c3ccc(F)cc3)C2)nc2ccccc21` (centres undefined) | N | - | N |
| 12 | `CON=C(C(=O)N[C@@H]1C(=O)N2C(C(=O)O)=C(CSC(=O)c3ccco3)CS[C@H]12)c1csc(N)n1` | N | N | N |
| 13 | `CCn1c(=O)n(CC)c2cc(NC3=C(C(N)=O)S(=O)(=O)c4ccccc43)ccc21` | N | - | N |
| 14 | `Nc1c(C(=O)Nc2ccccc2)sc2nc3c(cc12)CCCCC3` | N | N | N |
| 15 | `CCOC(=O)c1ccc(NCC(CNC(C)=O)([N+](=O)[O-])[N+](=O)[O-])cc1` | N | N | N |
| 16 | `CO[C@H]1CNC[C@@H]1NC(=O)CCCc1ccc(Cl)cc1` | N | N | N |
| 17 | `COc1ccc(COCC(O)CN2CCCCC2)cc1OC.Cl` (centres undefined) | N | N | N |
| 18 | `O=S(=O)([O-])CCS.[Na+]` | N | N | N |
| 19 | `Nc1ccc2[nH]c(COc3ccc(Cl)cc3)nc2c1` | N | N | N |
| 20 | `Nc1nc2cc(-c3cc(NCc4ccncc4)nc4[nH]ccc34)ccc2s1` | N | N | N |
| 21 | `CCOC(=O)C(O)C(C)(C)CN1C(=O)c2ccccc2C1=O` (centres undefined) | N | N | N |
| 22 | `CCN1C(=O)C2(c3ccccc31)c1c(oc3ccccc3c1=O)C(=O)N2CCCO` (centres undefined) | N | - | N |
| 23 | `CCC(O)Cn1nc(-c2ccco2)nc1CN1CCOc2ccccc2C1` (centres undefined) | N | N | N |
| 24 | `O=C([C@@H]1C[C@@H](O)CN1)N1CCc2[nH]nc(-c3cccc4ccccc34)c2C1` | N | N | N |
| 25 | `COc1ccc(S(=O)(=O)N2CCN(c3cc(C)nc(NC4CCCCC4)n3)CC2)cc1OC` | N | - | N |
| 26 | `O=c1[nH]c2ccccc2c(=O)n1CCO` | N | N | N |
| 27 | `CCn1c(CN(C)C)nnc1C1CCN(C(=O)c2ccc(CO)o2)CC1` | N | N | N |
| 28 | `Nc1nonc1C(=O)OCC(=O)c1ccc(Br)cc1` | N | N | N |
| 29 | `Nc1c(C(=O)O)noc1C(=O)c1ccccc1` | N | - | N |
| 30 | `CC(C(=O)Nc1nccs1)N1CCC2(CC1)Nc1ccccc1NC2=O` (centres undefined) | N | N | N |
| 31 | `Nc1nonc1-n1nnc(C(=O)N2CCCCC2)c1-c1ccccc1` | N | N | N |
| 32 | `CCOC(=O)c1cnn(-c2ccc(C(=O)O)cc2)c1N` | N | - | N |
| 33 | `CCOC(=O)C=C[C@H](C[C@@H]1CCNC1=O)NC(=O)[C@@H](CC(=O)[C@@H](NC(=O)c1cc(C)on1)C(C)C)Cc1ccc(F)cc1` | N | N | N |
| 34 | `Cn1c(=O)c2c(ncn2CC(O)CO)n(C)c1=O` (centres undefined) | N | N | N |
| 35 | `CC(=O)c1ccc(OCC(O)CN2CCN(C)CC2)cc1` (centres undefined) | N | N | N |
| 36 | `CC(C)CC(NC(=O)c1n[nH]c2c1CCC2)c1nnc2n1CCNCC2` (centres undefined) | N | N | N |
| 37 | `NC1CCCCN(C(=O)CCCOCc2ccccc2)C1` (centres undefined) | N | N | N |
| 38 | `CN(C)Cc1cccc(NC(=C2C(=O)Nc3cc(C(=O)N(C)C)ccc32)c2ccccc2)c1` | N | N | N |
| 39 | `Cn1c(C(=O)NCCCc2nnc(N)s2)cc(=O)n(C)c1=O` | N | N | N |
| 40 | `CCN(Cc1cnc(-c2ccccc2C)s1)[C@H]1COC[C@@H]1O` | N | N | N |
| 41 | `Cc1c(S(=O)(=O)c2ccc(Cl)cc2)c(N)n(CCN2CCOCC2)c1C` | N | N | N |

Repeated from the top, 5 entries:

| SMILES | T1 | T2 | T3 |
|---|---|---|---|
| `Cc1ccc(C(NC(=O)[C@H]2CC[C@@H](O)CC2)c2cccnc2)cc1C` (some centres undefined) | N | N | N |
| `O=c1cc(CO)[nH]nc1CO` | N | N | N |
| `CC(=O)O[C@]1(C(C)=O)CC[C@H]2[C@@H]3C=C(Cl)C4=CC(=O)[C@@H]5C[C@H]5[C@]4(C)[C@@H]3CC[C@@]21C` | N | N | N |
| `O=C(c1ccc(CO)cc1)N1C[C@H]2COc3ccccc3C[C@@]2(C(=O)O)C1` | N | N | N |
| `CCn1c(C(=O)O)c(CNCCc2ccc(Cl)cc2)c2ccccc21` | N | - | N |

Data from the ROBIN nucleic acid binder screens, doi:10.1002/anie.202211358.